# In PMC7266993:
# Amino acid sequences for entries named in this document (tags omitted).
# UniProt Q9UQE7: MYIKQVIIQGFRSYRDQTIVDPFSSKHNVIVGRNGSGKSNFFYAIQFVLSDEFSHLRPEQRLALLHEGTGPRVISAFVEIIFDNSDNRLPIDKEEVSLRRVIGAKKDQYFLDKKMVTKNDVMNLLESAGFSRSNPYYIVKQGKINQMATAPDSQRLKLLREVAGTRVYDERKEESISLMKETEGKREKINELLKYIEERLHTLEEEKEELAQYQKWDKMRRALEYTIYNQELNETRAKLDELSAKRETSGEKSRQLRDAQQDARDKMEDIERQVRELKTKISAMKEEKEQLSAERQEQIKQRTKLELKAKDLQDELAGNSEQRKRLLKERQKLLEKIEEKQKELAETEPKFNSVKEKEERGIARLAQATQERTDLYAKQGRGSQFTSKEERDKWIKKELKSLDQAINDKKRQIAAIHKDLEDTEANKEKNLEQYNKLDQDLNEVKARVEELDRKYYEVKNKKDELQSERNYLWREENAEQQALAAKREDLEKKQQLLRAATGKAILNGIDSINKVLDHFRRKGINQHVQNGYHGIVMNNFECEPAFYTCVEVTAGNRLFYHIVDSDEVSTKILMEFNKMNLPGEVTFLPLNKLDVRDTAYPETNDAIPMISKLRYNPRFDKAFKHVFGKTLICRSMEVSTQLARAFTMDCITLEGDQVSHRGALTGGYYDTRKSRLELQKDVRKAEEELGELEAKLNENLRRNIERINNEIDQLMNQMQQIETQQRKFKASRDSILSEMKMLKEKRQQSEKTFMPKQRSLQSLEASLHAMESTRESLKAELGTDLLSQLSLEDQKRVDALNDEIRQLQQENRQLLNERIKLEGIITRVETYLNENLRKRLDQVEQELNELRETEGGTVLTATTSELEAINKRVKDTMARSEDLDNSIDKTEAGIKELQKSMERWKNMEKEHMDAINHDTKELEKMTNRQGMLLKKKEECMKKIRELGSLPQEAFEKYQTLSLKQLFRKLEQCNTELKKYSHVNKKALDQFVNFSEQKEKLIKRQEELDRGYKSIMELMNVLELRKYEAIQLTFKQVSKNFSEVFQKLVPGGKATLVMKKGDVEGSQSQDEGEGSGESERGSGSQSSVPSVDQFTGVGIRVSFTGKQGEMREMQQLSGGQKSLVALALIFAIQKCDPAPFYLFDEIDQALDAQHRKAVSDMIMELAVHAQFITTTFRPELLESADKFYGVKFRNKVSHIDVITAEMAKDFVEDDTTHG
# Changes are numbered by the printed parent chain. These are yes or no findings as the source states them, for the method shown. Binding seen in cells or lysates may run through a third protein. Some binding calls cover weakened binding; strength is not graded here. Where a sequence is shown, tags or fusion partners need not be part of it.
# Assays:
# [1] = target: T1, FLAG–STAG1 D797A, siRNA-resistant transgene (stable, HCT 116 STAG2-502c4) (human) (UniProt Q8WVM7); experiment: co-IP; FLAG-STAG1 variants stably expressed in HCT 116 STAG2-502c4; anti-FLAG M2 agarose overnight; 50 mM Tris-Cl pH 7.4, 150 mM NaCl, 0.5% NP-40; capillary immunodetection of cohesin ring members
# T1 sequence: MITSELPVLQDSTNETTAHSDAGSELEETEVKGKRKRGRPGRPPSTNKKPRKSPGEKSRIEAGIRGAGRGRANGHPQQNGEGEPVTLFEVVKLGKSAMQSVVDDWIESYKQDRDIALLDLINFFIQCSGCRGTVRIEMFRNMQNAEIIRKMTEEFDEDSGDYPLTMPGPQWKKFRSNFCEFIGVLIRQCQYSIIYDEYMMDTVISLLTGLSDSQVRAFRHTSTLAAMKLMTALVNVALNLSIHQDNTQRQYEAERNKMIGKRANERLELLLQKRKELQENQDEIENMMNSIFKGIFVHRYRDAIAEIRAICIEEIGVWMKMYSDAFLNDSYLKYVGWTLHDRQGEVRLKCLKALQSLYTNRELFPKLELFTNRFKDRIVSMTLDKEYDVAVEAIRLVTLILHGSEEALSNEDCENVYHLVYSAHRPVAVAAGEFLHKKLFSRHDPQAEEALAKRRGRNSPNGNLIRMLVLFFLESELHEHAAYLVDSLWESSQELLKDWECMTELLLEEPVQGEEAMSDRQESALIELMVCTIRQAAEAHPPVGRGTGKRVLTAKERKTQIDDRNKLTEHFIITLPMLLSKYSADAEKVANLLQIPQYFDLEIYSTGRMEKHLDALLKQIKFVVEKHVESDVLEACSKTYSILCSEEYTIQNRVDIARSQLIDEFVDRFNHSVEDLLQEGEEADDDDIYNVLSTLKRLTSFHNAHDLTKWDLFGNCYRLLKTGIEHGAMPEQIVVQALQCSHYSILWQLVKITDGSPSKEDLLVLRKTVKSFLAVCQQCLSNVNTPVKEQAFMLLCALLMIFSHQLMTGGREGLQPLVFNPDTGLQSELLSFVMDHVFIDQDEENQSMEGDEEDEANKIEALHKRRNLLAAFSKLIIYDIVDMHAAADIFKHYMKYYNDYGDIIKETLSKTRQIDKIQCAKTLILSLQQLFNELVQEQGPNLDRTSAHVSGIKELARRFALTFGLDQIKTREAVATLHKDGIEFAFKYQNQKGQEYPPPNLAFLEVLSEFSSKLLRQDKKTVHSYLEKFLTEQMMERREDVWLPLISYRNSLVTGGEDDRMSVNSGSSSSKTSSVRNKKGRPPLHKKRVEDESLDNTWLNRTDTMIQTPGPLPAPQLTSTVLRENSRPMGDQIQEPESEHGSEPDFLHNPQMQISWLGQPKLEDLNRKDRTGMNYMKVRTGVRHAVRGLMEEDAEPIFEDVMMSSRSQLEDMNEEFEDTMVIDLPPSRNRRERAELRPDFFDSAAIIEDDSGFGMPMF
# [2] = target: T2, FLAG–STAG1 wild type, siRNA-resistant transgene (stable, HCT 116 STAG2-502c4) (human) (UniProt Q8WVM7); experiment: as above
# T2 sequence: T1 sequence with A797D
# [3] = target: T3, FLAG–STAG1 D797K, siRNA-resistant transgene (stable, HCT 116 STAG2-502c4) (human) (UniProt Q8WVM7); experiment: as above
# T3 sequence: T1 sequence with A797K
# [4] = target: T4, FLAG epitope-tagged STAG1, wild type (transient, HEK293) (human) (UniProt Q8WVM7); experiment: co-IP; FLAG-STAG1 variants transiently expressed in HEK293, 48 h; anti-FLAG M2 agarose 2 h; 25 mM Tris-HCl pH 7.5, 100 mM KCl, 5 mM MgCl2, 0.2% NP-40, 10% glycerol, benzonase; immunoblot and capillary immunodetection of cohesin subunits
# T4 sequence: T1 sequence with A797D
Substance,binding [1],binding [2],binding [3],binding [4]
"SMC3 (endogenous, HCT 116 STAG2-502c4) (from UniProt Q9UQE7 1-1217)",no binding,binds,no binding,
"SMC3 (endogenous, HEK293) (from UniProt Q9UQE7 1-1217)",,,,binds
